PubChem BioAssay AID602196 | INSERM, 2012

- Purpose: 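Modifiers of cisplatin sensitivity in A549 cells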
- Cells: human A549 lung cancer cells
- Knock-down reagent: siRNA pair against human genes
- Timing: 48 h transfection before cisplatin; time from cisplatin to read-out not stated
- Treatment: cisplatin at a dose killing half of control-siRNA cells; exact dose and duration not given
- Detection: 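Shift in cisplatin death relative to control siRNA, from -50 (all cells die) to +50 (no cells die); siRNAs harmful on their own scored 0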
- Reading the numbers: two-siRNA summed score (-2 to +2): higher = both siRNAs protect from cisplatin killing; -2 means both sensitise; mean protection from cisplatin (shift in death) and protection from cisplatin (shift in death), siRNA C and protection from cisplatin (shift in death), siRNA D: higher = protection from cisplatin killing
- Hit rule: 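Each siRNA scores 0 if harmful alone by LDH or WST-1, otherwise +1 if it reduces and -1 if it increases cisplatin killing; a gene is active when both siRNAs agree (sum +2 or -2)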
- Meaning of the calls: active = both siRNAs shift cisplatin killing the same way; inactive = no consistent shift, or siRNA harmful alone
In all, the deposit lists about 23,000 reagents; below is a random part of them. 455 of all reagents (2%) were called active. 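Active includes both protection and sensitisation; some change values fall well beyond the stated -50 to +50 range.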 Not stated in the record: the amount of reagent.

gene	two-siRNA summed score (-2 to +2)	mean protection from cisplatin (shift in death) (%)	protection from cisplatin (shift in death), siRNA C (%)	protection from cisplatin (shift in death), siRNA D (%)	Outcome
HERPUD2 (HERPUD family member 2)	1	17.8	16.8	18.8	inactive
PNPLA5 (patatin like domain 5, triacylglycerol lipase)	0	-0.5	-0.7	-0.3	inactive
GRIA1 (glutamate ionotropic receptor AMPA type subunit 1)	0	2.2	11.8	-7.5	inactive
OR52D1 (olfactory receptor family 52 subfamily D member 1)	0	2.9	5.3	0.5	inactive
PALB2 (partner and localizer of BRCA2)	1	11.1	0.4	21.7	inactive
USB1 (U6 snRNA biogenesis phosphodiesterase 1)	0	12.8	12.4	13.1	inactive
SRSF9 (serine and arginine rich splicing factor 9)	0	-7.4	-6	-8.9	inactive
LOC440535	0	27.9	23.8	32	inactive
CENPA (centromere protein A)	0	-0.4	4.4	-5.2	inactive
ARHGEF6 (Rac/Cdc42 guanine nucleotide exchange factor 6)	-1	-4.3	-12.9	4.2	inactive
OR2AK2 (olfactory receptor family 2 subfamily AK member 2)	0	-7.7	-3.7	-11.8	inactive
TNFSF18 (TNF superfamily member 18)	0	-2.2	-1	-3.3	inactive
AQR (aquarius intron-binding spliceosomal factor)	0	23.5	22.7	24.3	inactive
PIAS3 (protein inhibitor of activated STAT 3)	-1	-5.4	-13.1	2.3	inactive
OAZ2 (ornithine decarboxylase antizyme 2)	0	10.3	11.8	8.8	inactive
GCSAML (germinal center associated signaling and motility like)	0	6	5.9	6.1	inactive
ATOX1 (antioxidant 1 copper chaperone)	2	14.4	17.9	10.9	active
LOC286080	0	17.5	7.7	27.3	inactive
RIOX2 (ribosomal oxygenase 2)	0	-4.8	4.3	-13.8	inactive
LINC01501 (long independently transcribed non-coding RNA 1501)	0	16.5	13.7	19.3	inactive
RPL15 (ribosomal protein L15)	1	11	2.4	19.6	inactive
ARGLU1-DT (ARGLU1 divergent transcript)	1	14.4	20.8	8	inactive
ABCB6 (ATP binding cassette subfamily B member 6 (LAN blood group))	0	2.8	4.1	1.4	inactive
HHIP (hedgehog interacting protein)	0	1.9	5.1	-1.3	inactive
ACER3 (alkaline ceramidase 3)	0	2.3	0.1	4.4	inactive
TCERG1L (transcription elongation regulator 1 like)	0	17.3	27.6	7.1	inactive
SIGLEC16 (sialic acid binding Ig like lectin 16 (gene/pseudogene))	0	2.3	1	3.5	inactive
PDZD4 (PDZ domain containing 4)	0	3.6	11.8	-4.5	inactive
PLOD2 (procollagen-lysine,2-oxoglutarate 5-dioxygenase 2)	0	9.4	9.7	9.1	inactive
LOC388714	0	13.6	8.7	18.6	inactive
LINC00642 (long independently transcribed non-coding RNA 642)	0	7.2	-0.9	15.2	inactive
GADD45GIP1 (GADD45G interacting protein 1)	1	6.9	19.4	-5.7	inactive
FAM20A (FAM20A golgi associated secretory pathway pseudokinase)	0	-1	-11.7	9.8	inactive
LINC00939 (long independently transcribed non-coding RNA 939)	0	-1.6	-10.4	7.2	inactive
ZNF529 (zinc finger protein 529)	0	9.4	12.7	6.1	inactive
LOC286561	1	34.7	49.9	19.5	inactive
PCGF2 (polycomb group ring finger 2)	1	9	-6.7	24.7	inactive
ELOF1 (elongation factor 1)	0	-7.7	-8.8	-6.6	inactive
SCN11A (sodium voltage-gated channel alpha subunit 11)	-1	-24.7	-13.9	-35.4	inactive
LOC401005	0	6.6	7	6.1	inactive
BCORL1 (BCL6 corepressor like 1)	0	5.7	2.1	9.4	inactive
EFS (embryonal Fyn-associated substrate)	1	9.5	11	7.9	inactive
OXNAD1 (oxidoreductase NAD binding domain containing 1)	-1	-2.7	-18.5	13	inactive
TXNDC15 (thioredoxin domain containing 15)	1	9.7	-3.2	22.7	inactive
ACP5 (acid phosphatase 5, tartrate resistant)	0	11.8	22.5	1	inactive
MPP3 (MAGUK p55 scaffold protein 3)	-1	-20.2	-4.9	-35.4	inactive
AKAP3 (A-kinase anchoring protein 3)	1	16.3	4	28.5	inactive
RHEB (Ras homolog, mTORC1 binding)	0	8.1	12.5	3.8	inactive
LOC145842	0	7.6	17.1	-1.9	inactive
OR10C1 (olfactory receptor family 10 subfamily C member 1)	0	15.5	26.5	4.5	inactive
KDM1A (lysine demethylase 1A)	1	3.3	-15.7	22.3	inactive
RAD52 (RAD52 DNA repair protein)	1	8.2	16.6	-0.2	inactive
DLEU7 (deleted in lymphocytic leukemia 7)	0	10.8	19.9	1.8	inactive
PLX-4	-1	-23	-25.4	-20.5	inactive
PARP8 (poly(ADP-ribose) polymerase family member 8)	0	9.6	5.3	13.9	inactive
PLEK (pleckstrin)	-1	-20.7	-44.2	2.7	inactive
LOC440707	1	9.1	13.4	4.8	inactive
